According to publication PMC10602929:

Target: T1, MST2, yeast two-hybrid fusion (UniProt Q13188)
T1 sequence: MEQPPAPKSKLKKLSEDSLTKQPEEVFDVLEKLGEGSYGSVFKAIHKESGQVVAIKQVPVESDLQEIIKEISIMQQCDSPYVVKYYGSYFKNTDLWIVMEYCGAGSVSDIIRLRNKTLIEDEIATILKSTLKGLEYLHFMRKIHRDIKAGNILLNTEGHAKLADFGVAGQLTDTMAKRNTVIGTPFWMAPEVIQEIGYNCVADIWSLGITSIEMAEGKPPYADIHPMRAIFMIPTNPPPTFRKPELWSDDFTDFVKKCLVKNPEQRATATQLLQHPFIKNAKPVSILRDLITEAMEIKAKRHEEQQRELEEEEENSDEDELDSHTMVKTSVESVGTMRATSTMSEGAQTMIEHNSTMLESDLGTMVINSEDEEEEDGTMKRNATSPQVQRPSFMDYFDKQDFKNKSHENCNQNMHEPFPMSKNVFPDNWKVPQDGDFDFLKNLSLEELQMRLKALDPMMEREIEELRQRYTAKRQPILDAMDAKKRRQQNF
Assay: two-hybrid; GAL4-DBD fusions in yeast Y187 mated with GAL4-AD fusions in AH109; diploids on TDO plus 1 mM 3-AT and on QDO medium, 30°C, 3 days; both orientations

binding: binds weakly
Substance: TRIM69B, yeast two-hybrid fusion

These are yes or no findings as the source states them, for the method shown. Binding calls can cover weak binding; strength is not graded here. Tags and fused reporters may be left off the sequences shown.
